From US4411890A, “Synthetic peptides having pituitary growth hormone releasing activity” (Beckman Instruments, Inc., priority 1981, dated 1983)
Part of at least one peptide drawing is inferred or uncertain, most often the ends. Where a SMILES comes first, the peptide text is derived from it.

Legend:
[1] = tested on: Female rats of The CD-1 strain; test: In vivo growth hormone release study (subcutaneous injection, serum GH by RIA); parameters: species or system rat; conditions: serum GH about 15 minutes after injection, 21 day old female rats, mean ± SEM
Protocol: Female rats of The CD-1 strain were housed in a constant temperature room at 24° C. with 14 hours light and 10 hours darkness. The rats were fed Purina brand rat chow ab libitum. All studies were started between 0800 and 1000 hours. Each female rat (21 days old; eight rats per dosage level shown in Table XXVI) was injected subcutaneously with a desired dosage of the peptide of Example 6. Approximately 15 minutes after injection, the rat was guillotined. A blood sample was collected from the guillotined rat. The blood sample was centrifuged and a serum sample was collected therefrom. Each serum sample was assayed for GH, in duplicate, by a standard radioimmunoassay (RIA).

pituitaries = test: In vitro growth hormone release study (incubated rat pituitaries, GH by RIA); type: cell-based; conditions: GH released at I3, I4 (I5) minus P2, mean ± SEM
Protocol: Female rats of the CD-1 strain were housed in a constant temperature room at 24° C. with 14 hours light and 10 hours darkness. The rats were fed Purina brand rat chow ab libitum. All studies were started between 0800 and 1000 hours.
Pituitaries were removed from 20 day old female rats. In each polytetrafluoroethylene beaker (10 ml) was incubated two pituitaries at 36° C. in 1 ml of lactated Ringer's solution in a Dubnoff Shaker (90 cycles/min.). All medium in each beaker was removed each hour (e.g., P1, P2, I3, I4, I5) and then fresh medium was added back to each beaker. Each medium removed was assayed for GH, in duplicate, by a standard radioimmunoassay (RIA).
The growth hormone agonist of Example 1 was not added to the incubation mediums employed during the first hour of the incubation period (P1) or to the incubation mediums employed during the second hour of the incubation period (P2). […] The release of growth hormone was recorded as ΔGH and calculated by subtracting the amount of GH released at P2 from that released at I3, I4, and, when performed, I5. The agonist activity was determined from the release at I3, I4, and, when performed, I5. The mean of the ΔGH values obtained from the three beakers per dosage level measured at I3, I4, and, when performed, I5 are set forth in Table VI.

SMILES: C[C@H](NC(=O)[C@@H](Cc1c[nH]c2ccccc12)NC(=O)[C@@H](N)Cc1c[nH]cn1)C(=O)N[C@@H](Cc1c[nH]c2ccccc12)C(=O)N[C@H](Cc1ccccc1)C(=O)N[C@@H](CCCCNC(=N)N)C(N)=O [H2 -His-D-Trp-Ala-Trp-D-Phe-HomoArg-NH2] (HELM PEPTIDE1{H.[dW].A.W.[dF].[N=C(N)NCCCC[C@H](N[*:1])C(=O)[*:2]].[am]}$$$$V2.0)
- ΔGH ([1]; dosage 0.3 μg/ml serum (so in the source)): 3 ± 2 ng/ml subcutaneous
- ΔGH ([1]; dosage 10.0 μg/ml serum (so in the source)): 62 ± 8 ng/ml subcutaneous
- ΔGH (pituitaries; dosage 1 ng/ml incubation medium): -150 ± 124 ng/ml incubation medium
- ΔGH (pituitaries; dosage 10 ng/ml incubation medium): 1,096 ± 341 ng/ml incubation medium
